According to the supplement of paper PMC11732987, “Enantioselective OTUD7B fragment discovery through chemoproteomics screening and high-throughput optimisation” (Communications Chemistry, 2025):
Some of the results follow. The data scatter; read single values as rough.

Protein sequences, listed by entry. Tags and fused reporters are not part of them. Lines headed by an entry give the natural chain unless they say otherwise; changes in a name come on top.
UniProt O43255: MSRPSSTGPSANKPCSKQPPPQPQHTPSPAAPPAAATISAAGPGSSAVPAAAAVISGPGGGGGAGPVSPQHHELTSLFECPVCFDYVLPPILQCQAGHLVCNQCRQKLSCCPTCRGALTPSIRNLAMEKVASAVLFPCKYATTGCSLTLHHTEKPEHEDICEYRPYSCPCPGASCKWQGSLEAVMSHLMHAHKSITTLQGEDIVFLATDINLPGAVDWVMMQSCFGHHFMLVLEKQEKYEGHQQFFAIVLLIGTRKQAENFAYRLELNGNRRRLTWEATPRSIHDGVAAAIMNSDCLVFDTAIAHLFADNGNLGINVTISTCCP
UniProt Q9BQF6: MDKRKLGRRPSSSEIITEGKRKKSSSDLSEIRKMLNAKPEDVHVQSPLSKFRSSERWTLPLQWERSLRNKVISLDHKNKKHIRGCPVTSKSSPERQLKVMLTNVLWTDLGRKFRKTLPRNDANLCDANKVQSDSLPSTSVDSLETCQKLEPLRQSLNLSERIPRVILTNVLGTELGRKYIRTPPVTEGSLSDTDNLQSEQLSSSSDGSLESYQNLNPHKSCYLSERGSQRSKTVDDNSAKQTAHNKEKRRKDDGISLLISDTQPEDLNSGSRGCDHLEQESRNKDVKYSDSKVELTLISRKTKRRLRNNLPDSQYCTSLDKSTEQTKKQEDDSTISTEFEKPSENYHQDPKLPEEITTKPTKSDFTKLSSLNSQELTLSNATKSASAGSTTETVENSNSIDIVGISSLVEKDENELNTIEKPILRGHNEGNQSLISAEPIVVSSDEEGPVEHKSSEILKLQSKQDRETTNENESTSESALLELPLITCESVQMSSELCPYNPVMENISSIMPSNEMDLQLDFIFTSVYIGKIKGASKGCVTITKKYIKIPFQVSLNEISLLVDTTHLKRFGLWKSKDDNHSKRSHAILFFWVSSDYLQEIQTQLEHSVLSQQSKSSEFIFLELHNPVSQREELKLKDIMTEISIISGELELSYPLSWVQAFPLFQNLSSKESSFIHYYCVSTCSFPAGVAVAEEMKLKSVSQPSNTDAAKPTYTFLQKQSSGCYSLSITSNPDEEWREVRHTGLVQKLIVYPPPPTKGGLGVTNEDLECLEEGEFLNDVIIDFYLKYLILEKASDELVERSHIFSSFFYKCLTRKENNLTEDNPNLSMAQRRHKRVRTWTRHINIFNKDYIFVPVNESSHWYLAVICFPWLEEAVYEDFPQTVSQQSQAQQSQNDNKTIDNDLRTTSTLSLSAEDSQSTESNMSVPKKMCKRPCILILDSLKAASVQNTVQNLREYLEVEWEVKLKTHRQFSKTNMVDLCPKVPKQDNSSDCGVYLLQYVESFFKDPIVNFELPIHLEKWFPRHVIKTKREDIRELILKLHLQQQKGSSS
UniProt O75533, whole entry, looked up: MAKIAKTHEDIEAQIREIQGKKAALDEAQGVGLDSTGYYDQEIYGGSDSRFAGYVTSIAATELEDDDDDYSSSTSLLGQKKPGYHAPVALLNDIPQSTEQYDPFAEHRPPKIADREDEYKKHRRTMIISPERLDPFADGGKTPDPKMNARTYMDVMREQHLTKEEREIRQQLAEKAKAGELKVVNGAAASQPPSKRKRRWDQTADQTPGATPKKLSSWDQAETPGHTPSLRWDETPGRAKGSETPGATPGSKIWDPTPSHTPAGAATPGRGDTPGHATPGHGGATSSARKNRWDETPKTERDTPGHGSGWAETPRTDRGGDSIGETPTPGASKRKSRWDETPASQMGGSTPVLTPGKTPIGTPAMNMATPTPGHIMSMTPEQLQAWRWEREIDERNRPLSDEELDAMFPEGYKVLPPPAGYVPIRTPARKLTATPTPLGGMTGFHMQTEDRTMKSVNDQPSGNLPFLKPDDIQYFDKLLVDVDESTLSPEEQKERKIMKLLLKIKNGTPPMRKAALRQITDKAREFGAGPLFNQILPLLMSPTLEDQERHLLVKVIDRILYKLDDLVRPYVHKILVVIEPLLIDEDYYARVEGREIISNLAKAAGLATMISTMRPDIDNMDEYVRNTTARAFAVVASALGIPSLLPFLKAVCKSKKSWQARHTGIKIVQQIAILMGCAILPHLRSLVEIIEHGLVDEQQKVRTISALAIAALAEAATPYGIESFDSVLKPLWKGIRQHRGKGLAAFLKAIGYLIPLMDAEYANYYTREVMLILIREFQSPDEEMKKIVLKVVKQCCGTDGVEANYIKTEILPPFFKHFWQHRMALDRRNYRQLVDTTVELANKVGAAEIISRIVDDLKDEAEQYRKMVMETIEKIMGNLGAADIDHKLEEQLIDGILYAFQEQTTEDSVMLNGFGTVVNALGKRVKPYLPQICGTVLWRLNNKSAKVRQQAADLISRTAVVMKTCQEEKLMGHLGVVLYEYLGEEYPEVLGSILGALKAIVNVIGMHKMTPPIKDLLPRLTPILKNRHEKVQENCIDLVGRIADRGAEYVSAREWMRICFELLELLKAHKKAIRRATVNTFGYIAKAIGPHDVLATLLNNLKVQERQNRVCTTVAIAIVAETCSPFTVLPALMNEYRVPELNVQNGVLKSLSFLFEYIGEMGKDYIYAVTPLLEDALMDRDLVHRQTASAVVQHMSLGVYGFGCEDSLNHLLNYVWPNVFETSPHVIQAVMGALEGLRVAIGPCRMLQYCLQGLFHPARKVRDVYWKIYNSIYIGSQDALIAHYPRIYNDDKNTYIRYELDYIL

Experiments:
[1] = compound: ClCC(=O)N[C@@H]1CCCc2ccccc12; test: log2 mean competition ratio of IA-DTB cysteine labelling (DMSO/compound) (log2 ratio); higher = stronger cysteine engagement by compound; settings: treatment time: 4 h, cell line lysate: HEK293T
Experimental: (§1)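 IA-DTB competitive cysteine chemoproteomics in HEK293T RIPA lysate. Lysates were treated with compound 29 or 30 at 50 or 200 µM for 4 h, then IA-DTB (500 µM, 1 h), trypsin-digested, NeutrAvidin-enriched and analysed by diaPASEF. Competition ratio = intensity DMSO / intensity compound (n=4 treated, n=64 DMSO); binding: mean log2 CR ≥ 1 and p ≤ 0.05 plus QC filters. Target is the cysteine site.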

[2] = compound: ClCC(=O)N[C@H]1CCCc2ccccc12; test: as above; settings: treatment time: 4 h, cell line lysate: HEK293T
Experimental: as §1

Target	log2 mean competition ratio ([1]; 50 µM)	log2 mean competition ratio ([1]; 200 µM)	log2 mean competition ratio ([2]; 50 µM)	log2 mean competition ratio ([2]; 200 µM)
SIAH2 C15 (UniProt O43255)	0.343	0.288	0.00852	0.0338
SENP7 C316 (UniProt Q9BQF6)	-0.148	-0.384	0.013	-0.369
SF3B1 C1035 (UniProt O75533)	-0.00984	-0.167	-0.0875	-0.0112
